Reference: PMC11371640, “Structural deficits in key domains of Shank2 lead to alterations in postsynaptic nanoclusters and to a neurodevelopmental disorder in humans” (Molecular Psychiatry, 2022)
Results are given in words; binding and its absence hold for the method and conditions named. Tags and fused reporters may be left off the sequences shown. Values belong to the binder of their own block, whether it stands above or below them.

Experiments:
[1] = target: T1, His6-SUMO-tagged SH3 to PDZ domains of Shank2 (R520-D727), G643R (not stated (human or rat cDNA cloned)) (UniProt Q9UPX8); experiment: condition: 1 mM peptide in the syringe, 22 µM protein in the cell; ITC; peptide in the syringe (200 µM; 1 mM for G643R), His6-SUMO SH3-PDZ protein in the cell (20-30 µM); 25 °C; 50 mM Tris-HCl pH 8.0, 100 mM NaCl, 1 mM EDTA; 1:1 binding model; both purified
T1 sequence: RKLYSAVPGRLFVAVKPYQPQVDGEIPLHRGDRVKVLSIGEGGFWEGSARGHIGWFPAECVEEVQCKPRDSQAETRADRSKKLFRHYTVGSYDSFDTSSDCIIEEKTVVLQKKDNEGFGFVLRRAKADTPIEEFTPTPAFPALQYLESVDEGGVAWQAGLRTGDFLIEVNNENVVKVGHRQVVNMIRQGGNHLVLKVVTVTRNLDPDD

[2] = target: His6-SUMO-tagged SH3 to PDZ domains of Shank2 (R520-D727), WT (not stated (human or rat cDNA cloned)) (UniProt Q9UPX8); experiment: turbidity (absorbance at 350 nm); His6-SUMO-tagged SAM domains, 10 µM, mixed with Zn2+ in 96-well plates (200 µl); absorbance after 10 min or every 10 s with 10 µM Zn2+; 0.5 M NaCl, 20 mM Tris/HCl pH 7.5; both purified
[3] = target: His6-SUMO-tagged Shank2-SAM domain (T1780-R1849), WT (not stated (human or rat cDNA cloned)) (UniProt Q9UPX8); experiment: as above
[4] = target: His6-SUMO-tagged Shank2-SAM domain (T1780-R1849), L1800W (not stated (human or rat cDNA cloned)) (UniProt Q9UPX8); experiment: as above

binding [1]: no binding
B1: synthetic peptide of the C-terminal PDZ ligand of CIRL1/latrophilin (peptide)
peptide: PGPDGDGQMQLVTSL
notes: CIRL1/latrophilin, C-terminal PDZ ligand (15 residues), free N- and C-terminus; also called CIRL1 peptide; source: synthetic peptide (Genscript)

B2: His6-SUMO-tagged SH3 to PDZ domains of Shank2 (R520-D727), WT (domain or fragment, UniProt Q9UPX8-3 520-727)
chain: RKLYSAVPGRLFVAVKPYQPQVDGEIPLHRGDRVKVLSIGEGGFWEGSARGHIGWFPAECVEEVQCKPRDSQAETRADRSKKLFRHYTVGSYDSFDTSSDCIIEEKTVVLQKKDNEGFGFVLRGAKADTPIEEFTPTPAFPALQYLESVDEGGVAWQAGLRTGDFLIEVNNENVVKVGHRQVVNMIRQGGNHLVLKVVTVTRNLDPDD
binding [2]: no binding (tested: 10 µM protein with 10 µM Zn2+)

binding [3]: no binding (condition: 2 µM Zn2+)
B3: His6-SUMO-tagged Shank2-SAM domain (T1780-R1849), WT (domain or fragment, UniProt Q9UPX8-3 1780-1849, looked up)
chain: TKPVHLWTKPDVADWLESLNLGEHKEAFMDNEIDGSHLPNLQKEDLIDLGVTRVGHRMNIERALKQLLDR
notes: Shank2 SAM domain, residues T1780-R1849; numbers count on: NM_012309.5 (isoform of 1849 residues); also called SUMO-SAM fusion; WT SAM domain; source: E. coli BL21(DE3), purified (Ni-NTA agarose, G-25); not shown: His6, N-terminal, kept; SUMO, N-terminal, kept

binding [4]: no binding (condition: 2 µM Zn2+)
B4: His6-SUMO-tagged Shank2-SAM domain (T1780-R1849), L1800W (domain or fragment, UniProt Q9UPX8-3 1780-1849, looked up)
chain: TKPVHLWTKPDVADWLESLNWGEHKEAFMDNEIDGSHLPNLQKEDLIDLGVTRVGHRMNIERALKQLLDR
notes: Shank2 SAM domain, residues T1780-R1849, patient variant L1800W; numbers count on: NM_012309.5 (isoform of 1849 residues); also called L1800W mutant; p.L1800W SAM domain; source: E. coli BL21(DE3), purified (Ni-NTA agarose, G-25); not shown: His6, N-terminal, kept; SUMO, N-terminal, kept
